In PMC7819943, “Rice protein-binding microarrays: a tool to detect cis-acting elements near promoter regions in rice” one finds binding signal data, which are given here for 42 sequences.

Protein sequences, listed by entry. Tags and fused reporters are not part of them.
UniProt Q0JBA9, entry or part of it: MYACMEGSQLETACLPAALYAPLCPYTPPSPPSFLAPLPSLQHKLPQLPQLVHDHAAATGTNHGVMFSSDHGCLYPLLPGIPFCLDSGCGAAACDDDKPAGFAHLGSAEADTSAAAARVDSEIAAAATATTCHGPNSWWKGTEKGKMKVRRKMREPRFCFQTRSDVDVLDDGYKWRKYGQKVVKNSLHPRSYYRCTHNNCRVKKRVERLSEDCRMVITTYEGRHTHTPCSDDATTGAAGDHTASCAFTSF

This is one part of the list.

The experiment addresses OsWRKY34 (Oryza sativa, UniProt Q0JBA9 1-250). Description: protein-binding microarray (RPBM); PBS, 2% BSA, 51.3 ng/ul salmon testes DNA, 50 uM zinc acetate, 200 nM TF, 25 C, 1 h; high values mean tight binding. The following applies: protein: recombinant; tags: N-terminal polyhistidine and DsRed monomer fusion (pET32a); label: CyDye5-dUTP incorporated in the synthesized complementary strand; 3' TTTTT single-stranded linker to array surface; dsDNA, one strand shown. Summed up: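 The binding signal for each feature is its fluorescence intensity in arbitrary units. An Axon 4000B scanner was used to read a custom Agilent array that had been made double-stranded with Cy5-dUTP primer extension, blocked with 2% BSA, incubated at 25 °C for 1 h with 200 nM protein in PBS, 2% BSA, salmon testes DNA and 50 µM zinc acetate, and washed. The protein was an N-terminal polyhistidine–DsRed transcription factor fusion from E. coli BL21-CodonPlus, purified on Ni–NTA.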
For the sequence “ATTCACCTCACTATATCATTGATCATCCGAGTCCTAACTGCGGAGTCACCTAGTGCAG”, the binding signal was 9680 fluorescence intensity (a.u.). For “GCAAAATCGAGATATGCCATCCTGACCCACATGCCATTGACGGAGTCACCTAGTGCAG”, the binding signal is 8080 fluorescence intensity (a.u.). As for “TGCACTTATTTTACCATTAGTTTTGAAACTATATATTTCTCGGAGTCACCTAGTGCAG”, the figure is 8740 fluorescence intensity (a.u.); as for “CATCCTTTTCCCGTGTCTCGTACTACTCTCGTGTGGCAAACGGAGTCACCTAGTGCAG”, 8320 fluorescence intensity (a.u.). As to “ACATTCTTGTTGCAAGTAATTTACAGTCATTGACTGTTTACGGAGTCACCTAGTGCAG”, the binding signal was 10900 fluorescence intensity (a.u.).

For “ACTCTTTACTCTTTCTTTTCTTCTTTCTTTTTTGGCGGGGCGGAGTCACCTAGTGCAG”, the binding signal was 21200 fluorescence intensity (a.u.). Consider “ATTAGTCCTGTTGTTCCATCTGCCTGCTTGACTACAAGCACGGAGTCACCTAGTGCAG”, for which the binding signal was 8400 fluorescence intensity (a.u.). The result for “CTACATGGGTGTTGACTCATTTTATTTATCTTTTTCTCCACGGAGTCACCTAGTGCAG” reads 10300 fluorescence intensity (a.u.). Turning to “GCTGTTTTTTTTTCTTTTGTTTCTCCTCATTTGCTTTCTTCGGAGTCACCTAGTGCAG”, the binding signal was 13500 fluorescence intensity (a.u.). For “GCTATTTCCTGTTCACGGTTCCCCACATCTTTTGCTAGCACGGAGTCACCTAGTGCAG”, the binding signal was 10900 fluorescence intensity (a.u.).

As for “GGGTATGTTTGGCTAATGGGTTAGGGAGATGATTTCCCATCGGAGTCACCTAGTGCAG”, the binding signal was 9750 fluorescence intensity (a.u.).

As for “CGTCCGCCGCCGCCGCCGCCACCACCTGCACCGATCCCCACGGAGTCACCTAGTGCAG”, the binding signal was 13100 fluorescence intensity (a.u.).

“AACACCATGTCAACACTGCCACATTAGCGTCACGTCAGCACGGAGTCACCTAGTGCAG”: the binding signal was 9950 fluorescence intensity (a.u.). Turning to “CCTTTTCGCTTCTCTCGAGAAATCAAACCGTTCCTTTTTCCGGAGTCACCTAGTGCAG”, the binding signal is 10200 fluorescence intensity (a.u.). The result for “CGCCGTGTCCTTGCTCCTCCTAACTCAATAACATTACACGCGGAGTCACCTAGTGCAG” reads 8790 fluorescence intensity (a.u.); that for “GATTCGGTGCTAGCCTTCTCCCGGATTGTGTGTTGAAGCTCGGAGTCACCTAGTGCAG”, 8080 fluorescence intensity (a.u.); that for “GTGCTTTATCAGTGTGTGATGGTTCTTGCTGCCATGGTTACGGAGTCACCTAGTGCAG”, 8740 fluorescence intensity (a.u.). Consider “CTCCGCCGTCACCTCCACCACGCTGCCATCGCTTCGATCTCGGAGTCACCTAGTGCAG”, for which the binding signal is 14900 fluorescence intensity (a.u.). Take “AGCATAGGTAGTGTTTTAATAGAGGTGTTTAGTTTGCTATCGGAGTCACCTAGTGCAG”: the binding signal is 8940 fluorescence intensity (a.u.). Take “ACACCCACACTGTGCCGCAACGCCTCACGAACTCCGCGCGCGGAGTCACCTAGTGCAG”: the binding signal is 8560 fluorescence intensity (a.u.). As for “TCATCGGGGTTGGCGTTTAGGTATCTTTTTAGCGCCATGGCGGAGTCACCTAGTGCAG”, the figure is 11500 fluorescence intensity (a.u.). As for “TGCACCCCAGAGACAACCTAGCTACGTACCCTGCATCTGACGGAGTCACCTAGTGCAG”, the figure is 8140 fluorescence intensity (a.u.).

Regarding “TGAGCCATCAGACATTTATCACTTGGTTTCGTTTTACCTACGGAGTCACCTAGTGCAG”, the binding signal was 9480 fluorescence intensity (a.u.). On to “AGCCCTGGTGTCTCTCTCAGCTTGTCCAGATACTTCCCCGCGGAGTCACCTAGTGCAG”, for which the binding signal was 8920 fluorescence intensity (a.u.). Turning to “TTGGGTTGGGAATGGCGTTAGTAGCAGCTGGTGCAGCAGACGGAGTCACCTAGTGCAG”, the binding signal was 8710 fluorescence intensity (a.u.). The result for “ATGTACTCCGTTTCAATTTCGATTTGCTTGTCGTTCTAACCGGAGTCACCTAGTGCAG” reads 9070 fluorescence intensity (a.u.).

“ATGCTATACTCTCTTTTCCCATAAAAAATAGTATTTTTTACGGAGTCACCTAGTGCAG”: the binding signal is 8220 fluorescence intensity (a.u.). As for “AACCCCGACTCACGCGGAGCCACCGCCCTCGACTGTCGCCCGGAGTCACCTAGTGCAG”, the binding signal is 8710 fluorescence intensity (a.u.). For “TGAAATGGATGGACGGTGATCACGTGTTGACCAGACCTGACGGAGTCACCTAGTGCAG”, the binding signal is 9960 fluorescence intensity (a.u.). As to “TTGCTTCTCCGCCAGATCCGGTTGTCGTCGCCATCGCCTCCGGAGTCACCTAGTGCAG”, the binding signal was 9590 fluorescence intensity (a.u.). With “TTCTTCTTCTTCTTCAATTCTTGGACCATTCTTCCCTTCTCGGAGTCACCTAGTGCAG”, the binding signal is 11500 fluorescence intensity (a.u.). For the sequence “TTCACCACCACCGCCACGGCCTCTGCCTCTCGCTCTCTCTCGGAGTCACCTAGTGCAG”, the binding signal was 10200 fluorescence intensity (a.u.). Consider “AAGGGTCGGGTTTGGGCAAAATCTCGGCTGTGTTTCGTTGCGGAGTCACCTAGTGCAG”, for which the binding signal is 9220 fluorescence intensity (a.u.). As for “CCTCAACCGTGACTCAGTTATTCAGTTCGACACCCAGCCGCGGAGTCACCTAGTGCAG”, the binding signal was 8070 fluorescence intensity (a.u.).

Regarding “GATTTTTATGATGTGATGGATTCTGGCCGGTTAGTTTTGTCGGAGTCACCTAGTGCAG”, the binding signal is 12300 fluorescence intensity (a.u.). As for “AATACCGTATCCCTCCCGCGGCTCCGACTCCAAACCTAACCGGAGTCACCTAGTGCAG”, the figure is 8170 fluorescence intensity (a.u.); as for “GAGAAGAGGAGAGAGAGTGAGAGTGGGCGACAATTTTATCCGGAGTCACCTAGTGCAG”, 64200 fluorescence intensity (a.u.). Turning to “ATGTTTAGATCCCGGCAAAAATTTTCACTGTCTCATATCACGGAGTCACCTAGTGCAG”, the binding signal is 9220 fluorescence intensity (a.u.). For the sequence “AGACCGACTCCGTTTCCTCTTCGCGTCTCCTTCCTCACCGCGGAGTCACCTAGTGCAG”, the binding signal is 8900 fluorescence intensity (a.u.). On to “GAGTTAAAATACATTTCCTGCCGCTGGCCCTTGTTGACACCGGAGTCACCTAGTGCAG”, for which the binding signal was 8140 fluorescence intensity (a.u.). Regarding “GCTTTCCTTTTCTTCTTCTTCTTTTCAGATCCAAGGTTAACGGAGTCACCTAGTGCAG”, the binding signal was 10900 fluorescence intensity (a.u.). For “CAAATCGCTGCCGCCGCCGCCGCCCGCTCGCTAGGGTTTCCGGAGTCACCTAGTGCAG”, the binding signal was 8740 fluorescence intensity (a.u.).
